Test results published in the supplement of paper PMC6078165.

Key:
Assay in all cases: relative JC-1 red fluorescence (viability) vs pre-drug, monoculture (fraction); higher = more viable cancer cells
Conditions in all cases: coculture fibroblast: none (monoculture)
[1] = system: HCC1143
Description: (§1)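 JC-1 labelled TNBC cells grown in monoculture (density kept equal with unlabelled cancer cells) in 384-well plates in FluoroBrite medium, treated with one of 42 anticancer drugs at 0.1, 1, 10 or 100 uM. JC-1 red fluorescence (mitochondrial integrity, surrogate of apoptotic death) was read by plate reader every 8 h for 72 h. Values are normalised to each well's pre-drug value, with background from alamethicin. The stock of one drug was tenfold lower, so its dose labels may be too high. Monoculture values are repeated alongside each fibroblast plate and are averaged here.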

[2] = system: Hs578T
Description: as §1

[3] = system: MDAMB468
Description: as §1

[4] = system: BT20
Description: as §1

O=C(O)CCCc1ccc(N(CCCl)CCCl)cc1 [Chlorambucil]
relative JC-1 red fluorescence
Conditions	8 h	16 h	24 h	32 h	40 h	48 h	56 h	64 h	72 h
[1], 0.1 µM	0.9	0.738	0.697	0.672	0.747	0.726	0.689	0.638	0.608
[1], 1 µM	0.892	0.811	0.748	0.704	0.668	0.642	0.613	0.586	0.57
[1], 10 µM	0.8729	0.77	0.708	0.669	0.625	0.598	0.566	0.5433	0.52611
[1], 100 µM	0.913	0.831	0.761	0.706	0.661	0.604	0.555	0.522	0.5
[2], 0.1 µM	0.817	0.711	0.633	0.549	0.49	0.463	0.44	0.437	0.427
[2], 1 µM	0.8511	0.773	0.689	0.6243	0.582	0.559	0.526	0.515	0.511
[2], 10 µM	0.8762	0.71757	0.734	0.661	0.627	0.623	0.606	0.617	0.621
[2], 100 µM	0.83	0.7128	0.6008	0.524	0.462	0.4226	0.379	0.3635	0.3396
[3], 0.1 µM	0.8178	0.8007	0.805	0.782	0.771	0.797	0.794	0.806	0.821
[3], 1 µM	0.883	0.81	0.732	0.667	0.632	0.608	0.58	0.55364	0.5472
[3], 10 µM	0.831	0.757	0.709	0.642	0.594	0.574	0.548	0.526	0.509
[3], 100 µM	0.8701	0.792	0.745	0.691	0.632	0.6029	0.5645	0.513	0.49
[4], 0.1 µM	0.914	0.823	0.8	0.744	0.724	0.733	0.719	0.728	0.739
[4], 1 µM	0.9447	0.8692	0.788	0.7065	0.667	0.637	0.603	0.585	0.567
[4], 10 µM	0.9535	0.817	0.746	0.674	0.63	0.602	0.573	0.558	0.536
[4], 100 µM	0.941	0.865	0.815	0.743	0.696	0.67	0.6338	0.622	0.617

CN(Cc1cnc2nc(N)nc(N)c2n1)c1ccc(C(=O)N[C@@H](CCC(=O)O)C(=O)O)cc1 [Methotrexate]
relative JC-1 red fluorescence
Conditions	8 h	16 h	24 h	32 h	40 h	48 h	56 h	64 h	72 h
[1], 0.1 µM	0.8824	0.807	0.721	0.6697	0.6182	0.5779	0.544	0.524	0.499
[1], 1 µM	0.878	0.796	0.707	0.642	0.583	0.532	0.494	0.46	0.437
[1], 10 µM	0.896	0.8	0.74	0.686	0.625	0.582	0.551	0.523	0.512
[1], 100 µM	0.8515	0.7491	0.68175	0.626	0.563	0.516	0.479	0.446	0.412
[2], 0.1 µM	0.8554	0.759	0.659	0.5945	0.551	0.541	0.523	0.522	0.52
[2], 1 µM	0.903	0.807	0.754	0.69	0.6584	0.636	0.616	0.62	0.61
[2], 10 µM	0.835	0.746	0.651	0.614	0.559	0.536	0.513	0.51	0.498
[2], 100 µM	0.846	0.736	0.705	0.658	0.625	0.621	0.602	0.603	0.598
[3], 0.1 µM	0.907	0.858	0.804	0.697	0.6455	0.6175	0.5704	0.5349	0.5081
[3], 1 µM	0.892	0.83	0.725	0.672	0.619	0.594	0.561	0.531	0.519
[3], 10 µM	0.936	0.879	0.825	0.75	0.715	0.692	0.666	0.649	0.639
[3], 100 µM	0.918	0.8381	0.808	0.737	0.707	0.7	0.67	0.655	0.652
[4], 0.1 µM	0.9342	0.886	0.80139	0.728	0.692	0.667	0.647	0.622	0.6
[4], 1 µM	0.9409	0.8873	0.819	0.7449	0.707	0.695	0.663	0.657	0.652
[4], 10 µM	0.93701	0.8796	0.822	0.756	0.732	0.714	0.696	0.679	0.67
[4], 100 µM	0.913	0.818	0.786	0.73	0.702	0.688	0.662	0.651	0.643

The reference is the same well before dosing, and untreated signal decays as well.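 The cancer cells are triple-negative breast cancer lines of basal-like or mesenchymal-like type, grown without fibroblasts. A drop in red signal reflects loss of mitochondrial integrity, a stand-in for apoptotic death.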
